Data reported in paper PMC10542381.
These are yes or no findings as the source states them, for the method shown. Binding seen in cells or lysates may run through a third protein. Some results given as binding are weak or reduced against the parent protein; the word gives no strength.

Sequences of proteins named here, by UniProt entry; tags and fusion partners are left off.
UniProt Q15796: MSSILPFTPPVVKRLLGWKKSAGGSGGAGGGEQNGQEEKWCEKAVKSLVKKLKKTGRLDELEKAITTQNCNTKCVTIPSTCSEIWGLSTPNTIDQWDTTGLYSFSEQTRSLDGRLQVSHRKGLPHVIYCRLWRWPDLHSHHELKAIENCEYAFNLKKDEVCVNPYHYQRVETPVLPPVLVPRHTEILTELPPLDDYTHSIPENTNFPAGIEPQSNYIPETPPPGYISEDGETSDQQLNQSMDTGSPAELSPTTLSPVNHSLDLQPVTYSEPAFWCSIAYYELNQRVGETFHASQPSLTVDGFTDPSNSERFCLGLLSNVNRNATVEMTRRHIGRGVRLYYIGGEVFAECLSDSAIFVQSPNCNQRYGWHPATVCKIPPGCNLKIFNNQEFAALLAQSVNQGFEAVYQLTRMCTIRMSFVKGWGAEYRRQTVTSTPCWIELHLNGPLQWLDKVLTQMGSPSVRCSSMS
UniProt P84022: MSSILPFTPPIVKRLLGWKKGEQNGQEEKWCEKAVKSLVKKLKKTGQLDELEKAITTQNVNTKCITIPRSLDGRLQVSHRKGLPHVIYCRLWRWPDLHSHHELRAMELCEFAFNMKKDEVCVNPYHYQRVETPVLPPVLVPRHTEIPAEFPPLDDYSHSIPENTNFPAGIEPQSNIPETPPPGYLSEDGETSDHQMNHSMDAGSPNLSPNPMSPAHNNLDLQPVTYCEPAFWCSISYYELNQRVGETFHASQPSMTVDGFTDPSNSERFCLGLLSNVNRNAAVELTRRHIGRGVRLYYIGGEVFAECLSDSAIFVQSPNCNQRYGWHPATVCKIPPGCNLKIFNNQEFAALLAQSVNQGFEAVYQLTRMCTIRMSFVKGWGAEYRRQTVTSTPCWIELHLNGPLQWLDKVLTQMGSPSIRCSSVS

Key:
[1] = target: SMAD2 (human (endogenous in HK2)) (UniProt Q15796); assay: co-IP; HK2 cell lysates, Co-IP with anti-SIRT2 or anti-SMAD2 antibody, normal rabbit IgG as control, western blotting; co-IP buffer 20 mM Tris-HCl pH 8.0, 100 mM NaCl, 1 mM EDTA, 0.5% NP-40; 4 °C overnight
[2] = target: SMAD3 (human (endogenous in HK2)) (UniProt P84022); assay: co-IP; HK2 cell lysates, cells without TGF-β; Co-IP with anti-SIRT2 or anti-SMAD3 antibody, normal rabbit IgG as control, western blotting
[3] = target: SMAD3 (human (endogenous in HK2)) (UniProt P84022); assay: co-IP; HK2 cell lysates, cells in the presence of TGF-β; Co-IP with anti-SIRT2 or anti-SMAD3 antibody, normal rabbit IgG as control, western blotting

- binding [1]: binds
- binding [2]: no binding (condition: without TGF-β)
- binding [3]: binds
B1: SIRT2 (enzyme, UniProt Q8IXJ6 1-389)
chain: MAEPDPSHPLETQAGKVQEAQDSDSDSEGGAAGGEADMDFLRNLFSQTLSLGSQKERLLDELTLEGVARYMQSERCRRVICLVGAGISTSAGIPDFRSPSTGLYDNLEKYHLPYPEAIFEISYFKKHPEPFFALAKELYPGQFKPTICHYFMRLLKDKGLLLRCYTQNIDTLERIAGLEQEDLVEAHGTFYTSHCVSASCRHEYPLSWMKEKIFSEVTPKCEDCQSLVKPDIVFFGESLPARFFSCMQSDFLKVDLLLVMGTSLQVQPFASLISKAPLSTPRLLINKEKAGQSDPFLGMIMGLGGGMDFDSKKAYRDVAWLGECDQGCLALAELLGWKKELEDLVRREHASIDAQSGAGVPNPSTSASPKKSPPPAKDEARTTEREKPQ
